These are yes or no findings as the source states them, for the method shown. In cells and extracts the contact can be indirect. Here binding means that the protein was enriched with, or labelled near, the bait; the list need not be complete. For part of these data: Sequences can lack the tags named with a protein. One block for each binder: values may come before it.
How the values were obtained:
[1] = target: 3xFLAG-V5-GFP-TEsup-1 (Drosophila melanogaster (endogenous in OSCs)) (UniProt Q9VBX4); experiment: affinity purification with mass spectrometry
[2] = target: T1, 3xFLAG-V5-GFP-TEsup-2 (Drosophila melanogaster (endogenous in OSCs)) (UniProt Q7YZA2); experiment: affinity purification with mass spectrometry
T1 sequence: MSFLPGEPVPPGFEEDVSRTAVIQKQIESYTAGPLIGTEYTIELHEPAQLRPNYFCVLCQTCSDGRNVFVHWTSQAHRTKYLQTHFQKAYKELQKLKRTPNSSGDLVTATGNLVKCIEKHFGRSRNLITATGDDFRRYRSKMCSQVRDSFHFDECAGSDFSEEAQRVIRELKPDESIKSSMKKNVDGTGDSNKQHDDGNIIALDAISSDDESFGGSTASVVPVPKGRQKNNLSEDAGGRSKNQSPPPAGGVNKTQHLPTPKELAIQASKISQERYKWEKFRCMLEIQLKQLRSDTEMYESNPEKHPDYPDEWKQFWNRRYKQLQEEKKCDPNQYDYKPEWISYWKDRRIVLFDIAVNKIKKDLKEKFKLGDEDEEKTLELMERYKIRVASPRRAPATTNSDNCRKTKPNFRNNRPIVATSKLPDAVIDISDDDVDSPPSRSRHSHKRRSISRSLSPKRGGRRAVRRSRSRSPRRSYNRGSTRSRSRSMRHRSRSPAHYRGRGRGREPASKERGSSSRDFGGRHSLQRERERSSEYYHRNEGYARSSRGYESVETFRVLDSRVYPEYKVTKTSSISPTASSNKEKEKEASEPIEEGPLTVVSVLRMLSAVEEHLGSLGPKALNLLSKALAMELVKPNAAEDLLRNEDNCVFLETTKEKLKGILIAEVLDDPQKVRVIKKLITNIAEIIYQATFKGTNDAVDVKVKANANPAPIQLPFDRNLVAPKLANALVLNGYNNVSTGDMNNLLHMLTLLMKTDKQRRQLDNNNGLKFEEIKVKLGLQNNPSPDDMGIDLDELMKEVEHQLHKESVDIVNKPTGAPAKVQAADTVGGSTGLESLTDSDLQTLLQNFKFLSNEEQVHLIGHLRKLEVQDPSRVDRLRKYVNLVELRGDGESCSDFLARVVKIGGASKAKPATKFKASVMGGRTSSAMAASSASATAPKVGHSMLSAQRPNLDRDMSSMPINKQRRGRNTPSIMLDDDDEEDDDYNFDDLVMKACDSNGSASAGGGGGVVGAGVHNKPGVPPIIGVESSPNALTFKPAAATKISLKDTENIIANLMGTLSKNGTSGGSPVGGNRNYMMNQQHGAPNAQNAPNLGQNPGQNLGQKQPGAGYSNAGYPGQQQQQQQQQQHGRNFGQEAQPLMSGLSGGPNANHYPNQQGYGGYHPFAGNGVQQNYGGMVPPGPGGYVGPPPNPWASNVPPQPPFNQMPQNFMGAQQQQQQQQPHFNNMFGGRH

Amino acid sequences for entries named in this document (tags omitted). A change or cut given only in a name is not applied to a line headed by its entry.
UniProt Q9Y134: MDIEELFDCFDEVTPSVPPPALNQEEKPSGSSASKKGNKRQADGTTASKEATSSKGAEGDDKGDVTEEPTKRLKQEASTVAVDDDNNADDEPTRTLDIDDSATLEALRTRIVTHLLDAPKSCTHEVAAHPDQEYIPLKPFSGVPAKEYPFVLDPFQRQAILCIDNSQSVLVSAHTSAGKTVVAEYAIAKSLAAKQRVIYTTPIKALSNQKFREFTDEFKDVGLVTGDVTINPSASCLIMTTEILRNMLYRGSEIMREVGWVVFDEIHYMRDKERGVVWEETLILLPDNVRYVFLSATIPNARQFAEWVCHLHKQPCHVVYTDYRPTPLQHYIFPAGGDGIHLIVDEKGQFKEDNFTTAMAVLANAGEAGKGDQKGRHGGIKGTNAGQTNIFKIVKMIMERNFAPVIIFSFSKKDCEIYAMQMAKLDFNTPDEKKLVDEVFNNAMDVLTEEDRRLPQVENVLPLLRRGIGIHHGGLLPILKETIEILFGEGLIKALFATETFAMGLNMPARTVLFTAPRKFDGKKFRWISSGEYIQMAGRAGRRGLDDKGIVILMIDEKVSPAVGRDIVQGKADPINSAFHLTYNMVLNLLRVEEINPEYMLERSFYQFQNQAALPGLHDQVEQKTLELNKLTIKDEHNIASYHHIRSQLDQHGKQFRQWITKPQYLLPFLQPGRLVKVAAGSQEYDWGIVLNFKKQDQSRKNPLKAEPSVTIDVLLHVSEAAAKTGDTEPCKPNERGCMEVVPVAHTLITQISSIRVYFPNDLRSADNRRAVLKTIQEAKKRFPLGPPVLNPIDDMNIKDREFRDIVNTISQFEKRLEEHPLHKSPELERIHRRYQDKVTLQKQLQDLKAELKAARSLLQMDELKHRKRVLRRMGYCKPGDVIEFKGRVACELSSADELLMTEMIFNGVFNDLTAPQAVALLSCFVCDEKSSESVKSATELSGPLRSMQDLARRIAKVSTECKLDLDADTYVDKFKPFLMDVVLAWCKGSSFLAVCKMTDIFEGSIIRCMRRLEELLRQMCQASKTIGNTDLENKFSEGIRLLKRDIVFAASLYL

[3] = target: Mtr4-dTAG-V5-3xFLAG (Drosophila melanogaster (endogenous in OSCs)) (UniProt Q9Y134); experiment: affinity purification with mass spectrometry
[4] = target: 3xFLAG-TurboID-TEsup-1 (Drosophila melanogaster (endogenous in OSCs)) (UniProt Q9VBX4); experiment: proximity labelling
[5] = target: T2, 3xFLAG-TurboID-TEsup-2 (Drosophila melanogaster (endogenous in OSCs)) (UniProt Q7YZA2); experiment: proximity labelling
T2 sequence: T1 sequence

[6] = target: 3xFLAG-V5-GFP-dZfc3h1 (Drosophila melanogaster (endogenous in OSCs and ovaries)) (UniProt Q9W238); experiment: affinity purification with mass spectrometry
[7] = target: dZcchc7-GFP-V5-3xFLAG (Drosophila melanogaster (endogenous in OSCs)); experiment: affinity purification with mass spectrometry
[8] = target: T3, dZcchc8-GFP-V5-3xFLAG (Drosophila melanogaster (endogenous in OSCs)) (UniProt Q2PE14); experiment: affinity purification with mass spectrometry
T3 sequence: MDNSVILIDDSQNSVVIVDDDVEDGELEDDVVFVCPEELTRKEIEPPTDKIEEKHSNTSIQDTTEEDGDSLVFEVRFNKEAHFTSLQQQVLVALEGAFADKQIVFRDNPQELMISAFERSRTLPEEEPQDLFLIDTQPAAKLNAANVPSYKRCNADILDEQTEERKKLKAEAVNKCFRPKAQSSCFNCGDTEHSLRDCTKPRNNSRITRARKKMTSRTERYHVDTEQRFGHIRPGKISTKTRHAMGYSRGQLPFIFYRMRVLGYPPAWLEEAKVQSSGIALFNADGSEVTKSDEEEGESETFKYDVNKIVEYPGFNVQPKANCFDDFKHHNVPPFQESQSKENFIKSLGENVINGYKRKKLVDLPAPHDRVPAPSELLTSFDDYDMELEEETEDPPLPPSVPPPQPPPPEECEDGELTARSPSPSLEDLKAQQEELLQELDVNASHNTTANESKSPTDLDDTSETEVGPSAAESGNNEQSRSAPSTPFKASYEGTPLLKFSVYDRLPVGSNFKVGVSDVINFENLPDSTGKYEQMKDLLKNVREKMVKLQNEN

- binding [1]: binds
- binding [2]: binds
- binding [3]: binds
- binding [4]: binds
- binding [5]: binds
B1: dZcchc8 (CG4622) (protein, UniProt Q2PE14 1-553)
chain: T3 sequence

- binding [6]: binds
B2: Swm (protein, UniProt Q9VIV2 1-1062)
chain: MILENSDKLKDWLSVVLEPLCDADSSALARYVIALLKKDKSDKDLKRIMIEQLDVFLSEETTRFVERLFDAIASEEYLTVPAAPLITASSASTAELTVDQELALVIDGPQDDIEAVLVADSPPPPPKDNVIKPDSNQVKLEQASQDAREAEALAFISQEAGIAMHVPTDAKPAFDHKTKDSHNQQSASNYQHHHVRSASPPGRSSGVSGSGGGGPGGAGLAAGYADKENQPRDSRRRRASLRSRSRSRSRSNERAFRRSRSRDRRVNEREKTQRQFRNKSPPGSQTDNRHHGRRNFDRRRIGGNADDRPRFGNNKSRRSHSRSMSPERNARRNQNSPDRVQTAQANLIPAPVAPPAPVEHPASHPRQRCRDFDEKGYCVRGETCPWDHGVNPVVFEGINNTSLMMSMREYNPDAPEIWARSGGPPPGAGQGPVPPPTQPGQTTINPFSGNVRPTTLMSGSGPSPMGVPNPADYARNPGAPPQAAMMPFPFNPTAVTTPLQRQLIPIPVVDGAPTGGVAEVGKRRFELEDTVAIADVPTKRKVPINSRLGPRVNPNMQQHNSSLELRKVPRGLNTIAHLNNHFAKFGKIVNIQVSYEGDPEAAIVTFSTHAEANVAYRSTEAVLNNRFIKVFWHNDSSGADVGQMNQMGGGGGGGGRKNASQYHLHNVPAVPTPNADGAKISNANPLTEAGAGNIGTPATEQANTAAPASMRLKLNTTTAGGSAGGAAGAGAPGSGRPLNPAANAASIRKKQEEQQKAVHQLANGLRKRKQELLQSYMKQMKTALELVERMDQQDPQRAPTLQTIKVLQMTIDKLRKEIKADQDQLQAQMQQQQQQQQPPVKKTKEQQKKELLDMELELIAQQQEGNDTTAIQKRLEELQRNLGVGSAANNKSTHYAPASGAPGGGAGRKRPNLPEGPTRVDRRPKAIVVTGFAAEEADFVLGHFKNFGEISKHDVDREIPQLILSYATRLNAEQAVLRGKMYKDKRLQISWAPVVTPAPAPMAAPVEKSAAPGDMSVSLENPKQLIQSVSESESLLGSDTLPELRLEDEEEDEESEDRSWRR

- binding [1]: binds
- binding [2]: binds
- binding [3]: binds
- binding [7]: binds
- binding [8]: binds
- binding [4]: binds
- binding [5]: binds
B3: Piwi (protein, UniProt Q9VKM1 1-843)
chain: MADDQGRGRRRPLNEDDSSTSRGSGDGPRVKVFRGSSSGDPRADPRIEASRERRALEEAPRREGGPTERKPWGDQYDYLNTRPAELVSKKGTDGVPVMLQTNFFRLKTKPEWRIVHYHVEFEPSIENPRVRMGVLSNHANLLGSGYLFDGLQLFTTRKFEQEITVLSGKSKLDIEYKISIKFVGFISCAEPRFLQVLNLILRRSMKGLNLELVGRNLFDPRAKIEIREFKMELWPGYETSIRQHEKDILLGTEITHKVMRTETIYDIMRRCSHNPARHQDEVRVNVLDLIVLTDYNNRTYRINDVDFGQTPKSTFSCKGRDISFVEYYLTKYNIRIRDHNQPLLISKNRDKALKTNASELVVLIPELCRVTGLNAEMRSNFQLMRAMSSYTRMNPKQRTDRLRAFNHRLQNTPESVKVLRDWNMELDKNVTEVQGRIIGQQNIVFHNGKVPAGENADWQRHFRDQRMLTTPSDGLDRWAVIAPQRNSHELRTLLDSLYRAASGMGLRIRSPQEFIIYDDRTGTYVRAMDDCVRSDPKLILCLVPNDNAERYSSIKKRGYVDRAVPTQVVTLKTTKNRSLMSIATKIAIQLNCKLGYTPWMIELPLSGLMTIGFDIAKSTRDRKRAYGALIASMDLQQNSTYFSTVTECSAFDVLANTLWPMIAKALRQYQHEHRKLPSRIVFYRDGVSSGSLKQLFEFEVKDIIEKLKTEYARVQLSPPQLAYIVVTRSMNTRFFLNGQNPPPGTIVDDVITLPERYDFYLVSQQVRQGTVSPTSYNVLYSSMGLSPEKMQKLTYKMCHLYYNWSGTTRVPAVCQYAKKLATLVGTNLHSIPQNALEKKFYYL

- binding [6]: binds
B4: Pabp2 (protein, UniProt Q7KNF2 1-224)
chain: MADEDITLNEDQLLESLEETNGEQETEIATEVEEEGSMQIDPELEAIKARVKEMEEEAEKIKQMQSEVDKQMAGGSTTGLATVPLSLEEKQEIDTRSVYVGNVDYGASAEELEAHFHGCGTINRVTILCNKADGHPKGFAYIEFGSKEFVETALAMNETLFRGRQIKVMSKRTNRPGLSTTNRFARGSFRGRGARVSRACCHSTFRGARRAMGYRGRANYYAPY

- binding [1]: binds
- binding [2]: binds
- binding [3]: binds
- binding [7]: binds
- binding [8]: binds
- binding [4]: binds
- binding [5]: binds
B5: Maelstrom (protein, UniProt Q9VNS0 1-459)
chain: MAPKKHSGFMMFVNEWRNRNAEGRRMTLAQAVSHCGTIWEKMNTQQRGPYNSGGKDANVAQRAKRESSNGHGQVDKAQREATESLMDMKRTIERLVLNAKMSHDLENAKFVFVAFNYFTKALTTDVYVPAEFAACEYSLKEGIRSIYSTMIDPGQIIFGQGSDALLHSSTTHDLPLPPNALGEKNMTKLYRNIVDYLSKCQGKGKTLVVFTPAENITMVKSCFRYLECDDDFRDGGEKIQVFDIQYLLFILKKEVMNVADLNDEKINKFATDAFFKKDFFEFTAGIACQYHEDNDRTKYCTQSMVTRWAYTFTDFMCGDLAITVQPGKHIPAQTKPNYLIISSYASSLDHESSFDSFYSLPGSGVKKESQPEACSLSSSRLSVASSSYKPIDHTSFAANLNEVSEFPSLGMRNSSKHHGIAASAQREWNARNLPTHSRLIRKVSDNDFSVNGADGKLKK

Reference: article doi:10.64898/2025.12.16.694471
